PubChem BioAssay AID493246 – Drosophila RNAi Screening Center – 2011

- Purpose: 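Genome-wide search for dsRNAs that reduce cell number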 (primary screen)
- Cells: Drosophila Kc and S2R+ cells
- Reagent: long dsRNA against Drosophila genes
- Read-out: 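Cell number per well after knock-down, printed as raw plate values; calls were based on per-plate z-scores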
- Direction: Kc cell number and S2R+ cell number: higher = more cells remaining
- Rule for the call: 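Counted as a hit if cell number falls by a z-score of at least 3 within its plate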
In all, the deposit lists about 21,000 reagents; this is an unselected part of those that have a named target and a result. Over the whole deposit, 429 (2%) are marked active. 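Values are raw and not normalised between plates; calls rest on per-plate z-scores that were not deposited.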 Unmarked entries are inactive. Not stated in the record: the amount of reagent, the time to read-out.

The opening 6 entries, to show the layout:
target gene	dsRNA	Kc cell number, rep 1	Kc cell number, rep 2	S2R+ cell number, rep 1	S2R+ cell number, rep 2
CG17264	DRSC00500	1.31e6	1.38e6	7.22e5	9.40e5
CG34205	DRSC04149	1.66e6	1.81e6	1.38e6	4.52e5
CG11590	DRSC19411	1.49e6	1.46e6	1.06e6	1.12e6
per	DRSC18818	1.43e6	1.43e6	1.01e6	1.12e6
CG14963	DRSC08422	1.41e6	1.42e6	1.01e6	1.16e6
CG15499 (retired record)	DRSC15041	1.46e6	1.45e6	1.10e6	1.24e6

The listing, from the first entry:
target gene	dsRNA	Kc cell number, rep 1	Kc cell number, rep 2	S2R+ cell number, rep 1	S2R+ cell number, rep 2
CG17264	DRSC00500	1.31e6	1.38e6	7.22e5	9.40e5
CG34205	DRSC04149	1.66e6	1.81e6	1.38e6	4.52e5
CG11590	DRSC19411	1.49e6	1.46e6	1.06e6	1.12e6
per	DRSC18818	1.43e6	1.43e6	1.01e6	1.12e6
CG14963	DRSC08422	1.41e6	1.42e6	1.01e6	1.16e6
CG15499 (retired record)	DRSC15041	1.46e6	1.45e6	1.10e6	1.24e6
Moe	DRSC18684	5.23e5		8.73e5	
CG11693	DRSC14353	1.65e6	1.75e6	1.34e6	1.52e6
Upf1	DRSC19667	5.11e5		8.02e5	
CG8389	DRSC07158	1.55e6	1.62e6	1.17e6	1.11e6
CG14024	DRSC00868	1.54e6	1.61e6	1.17e6	1.34e6
CG14024	DRSC02354	1.30e6	1.29e6	6.38e5	6.71e5
CREG	DRSC16595	1.23e6	1.28e6	1.18e6	1.38e6
CG5888	DRSC01929	1.29e6	1.39e6	1.33e6	1.37e6
CG15930	DRSC18107	1.55e6	1.56e6	9.97e5	1.17e6
CG12307	DRSC02159	1.73e6	1.88e6	1.42e6	1.62e6
disco	DRSC20323	1.70e6	1.71e6	1.20e6	1.37e6
Ac13E	DRSC19325	1.66e6	1.68e6	1.21e6	1.25e6
RpL31	DRSC06716	1.12e6	1.18e6	7.45e5	8.92e5
Pex3	DRSC10731	1.51e6	1.53e6	1.38e6	1.39e6
Sema1b	DRSC07550	1.40e6	1.42e6	1.10e6	1.18e6
CG17147	DRSC10249	1.69e6	1.82e6	1.25e6	1.44e6
CG4297	DRSC00651	1.44e6	1.50e6	1.02e6	1.20e6
CG13801	DRSC08335	1.46e6	1.39e6	1.03e6	1.21e6
clu	DRSC07181	1.41e6	1.38e6	1.12e6	1.17e6
CG10345	DRSC14138	1.53e6	1.64e6	1.16e6	1.23e6
btz	DRSC14566	5.23e5		7.68e5	
CG13743	DRSC05139	1.27e6	1.46e6	1.12e6	1.19e6
CG13743	DRSC06414	1.48e6	1.59e6	1.01e6	1.08e6
ND-13B	DRSC10643	1.22e6	1.39e6	1.09e6	1.23e6
Nhe1	DRSC00762	1.24e6	1.18e6	7.81e5	6.84e5
PGRP-LB	DRSC14926	1.47e6	1.51e6	1.09e6	1.19e6
rpk	DRSC12386	1.72e6	1.70e6	1.42e6	1.57e6
robls54B	DRSC05660	5.20e5		7.67e5	
CG4702	DRSC15626	1.59e6	1.66e6	1.36e6	1.42e6
CG31515	DRSC13610	1.39e6	1.61e6	1.06e6	1.09e6
CG34045	DRSC05787	5.87e5		9.08e5	
Crk	DRSC17163	5.53e5		8.34e5	
AttA	DRSC05926	1.60e6	1.68e6	1.27e6	1.17e6
CG31161	DRSC16144	1.72e6	1.71e6	9.99e5	1.11e6
CG8785	DRSC07266	1.50e6	1.54e6	1.12e6	1.13e6
PIP4K	DRSC17213	1.47e6	1.48e6	1.00e6	1.10e6
ras	DRSC18825	5.99e5		9.75e5	
Pbp95	DRSC15448	1.41e6	1.51e6	1.21e6	1.32e6
Or59b	DRSC04632	1.56e6	1.64e6	1.34e6	1.36e6
l(3)neo38	DRSC14946	1.46e6	1.56e6	1.05e6	1.19e6
l(3)neo38	DRSC16138	1.57e6	1.65e6	1.38e6	1.50e6
CG34375	DRSC14684	1.40e6	1.51e6	9.70e5	1.08e6
CG34375	DRSC14685	1.44e6	1.40e6	9.62e5	1.02e6
Blos1	DRSC05970	1.54e6	1.67e6	1.37e6	1.53e6
CG13814 (retired record)	DRSC10069	1.74e6	1.91e6	1.42e6	1.58e6
Lac	DRSC07452	1.36e6	1.38e6	1.20e6	1.21e6
Tsp47F	DRSC07325	1.38e6	1.45e6	8.66e5	9.78e5
Flo2	DRSC19062	1.20e6	1.52e6	1.10e6	1.15e6
Flo2	DRSC20244	1.58e6	1.59e6	1.15e6	1.23e6
RpS10a	DRSC14161	5.48e5		8.35e5	
CG7492	DRSC10855	1.42e6	1.57e6	1.25e6	9.46e5
mldr	DRSC18100	1.56e6	1.50e6	1.06e6	1.15e6
RpL40	DRSC00782	1.02e6 (active)	1.06e6	7.18e5	8.42e5
